We go through 68 sequences from PubChem BioAssay AID1508600 (Functional Genomics Laboratory (NCATS/FGL), 2020).

The campaign covered roughly 53,000 sequences. About 3,700 (7%) were called active.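 Rule for the calls: active = gene knockdowns whose robust z-score for IL-1 alpha signal is at least 2 or at most -2, so actives lie on both sides; inactive = the rest.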 The list shows a part of the results.

This assay is described as follows: Components of the Cytosolic LPS Sensing Pathway: Gene Identification via Genome-wide siRNA Screen.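 Note: robust z of the log signal after scaling to non-targeting control siRNA wells of the plate.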 The note with it: RAW264.7 macrophages, IL-1a HTRF, actives lie on both sides, screened at 100 nM (by protocol), cells primed 5 h with Pam3CSK4 first. The essentials:
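Cells (RAW264.7, 1×10^4 per well) were transfected with siRNA at 100 nM and cultured 48h at 37 degrees C. Pam3CSK4 was added for 5 hours; LipidA transfection followed for 24 hour. IL-1a was then measured by HTRF.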
(Time-resolved FRET reads energy transfer from a long-lived donor to a nearby acceptor.)
On to GCCUUAUGGUUUUGUAUUUTT against Nap1l1, for which the z-score is active: -2.38.

Consider CCAGUAUCACUAAAGCACATT against Stx19, for which the z-score was inactive: -0.949. In the case of “GGUCUCAUUGUUGGAAGAGTT against 4930433N12Rik”, the z-score is inactive: 0.58. GGAAAUCCGACCCUACAAATT against Taf12: the z-score was inactive: 1.09. Next, GACCACUUUAUGGAUGAGUTT against Stx1b: inactive: 0.152. Consider GCUAUGAAGCCAUUAAGAATT against Zfp292, for which the z-score is inactive: -0.529. For CGCAAUACCAGCAAAAGACTT against Rtp3, the z-score was inactive: -0.927.

Take “GGUAGAAACAAAGAAAUAGTT against 9130023H24Rik”: the z-score is inactive: -0.183. Next, GGGACAGAAUGUAAUUAAUTT against Olfr702: inactive: -1.49. Next, GGAACCUUGAAGCUUCUCUTT against Hrh3: inactive: -0.545; GGCAGAAACAGUCCUUGUUTT against Gfra4: inactive: -1.54; GCGUACCUGGACAAUGUGUTT against Fmnl3: inactive: -1.33. The result for GGAGACCUCCUCCAUGUUATT against Ptk6 reads inactive: -0.82; that for GCGUGAGUCCCUAUAUGAATT against Tmem177, active: 2.98; that for GCUUGUUAAAAUUGGAAAGTT against Kif11, inactive: -1.47.

GGCUGAAGACUUGAAAACGTT against Tipin: the z-score is inactive: -0.291. Regarding GGUAACAACUUUUAAGCCUTT against Prps2, the z-score is inactive: -0.318. Next, UGUAGAGAGAUAAUUGCUATT against Gm11545: inactive: 0.668; GGCGAUGAGAAGUUUGAAUTT against Sbds: inactive: 0.654. The result for GGAGGACUUUCAGUUAUAUTT against Ogfod3 reads inactive: 1.32; that for CCAGCGGGAGACUUACGAATT against Nckap5l, inactive: 0.521; that for GGCCUUUAACAGUGUUGAGTT against Plag1, inactive: -0.778. The result for CCGACCUGAAACAGAUUAATT against Slc3a2 reads inactive: -0.239. As to “GGGAUUUCUGCACACCCUATT against A530053G22Rik”, the z-score was inactive: 0.788.

In the case of CCCUUUCACAAAUAGCACATT against Crb3, the z-score is inactive: -0.0393.

With CGGCAACAACAUCACUCGGTT against Slit1, the z-score is inactive: -0.817.

CGUAGCAAUCAACAAUAUCTT against Pcdhb17: the z-score was inactive: 0.762. The result for GCUAUUCACUUGAUUCAUGTT against Sdad1 reads inactive: 0.318; that for GCAAUGUGGAAAGUGUAAATT against Washc1, inactive: -1.38; that for GGCAAAUGUGUUAUGUUUUTT against Rnf11, inactive: -0.269. For the sequence GCACUGACAUCAAAAAUACTT against Ddx31, the z-score was inactive: -0.131.

With GGCUUGACUUCUCCAAACATT against Ep300, the z-score is inactive: -1.68. Take GGCACAUCACUGCUUACCUTT against Rce1: the z-score is inactive: -1.73. The result for GGACUUGCUUUCUGAGAACTT against Zfp319 reads inactive: 0.16.

Turning to GGAACAUGACUUUCUCUGUTT against Tmem161a, the z-score is inactive: 0.0961. The result for GCCUUCCAUACAUUUAACATT against Olfr311 reads inactive: -1.01; that for GGCGAAUGCGCUUCUGAUATT against BC053393, active: 2.29; that for GGCCAUGUUGAGUAAGAAATT against Mmrn2, inactive: 0.617. Turning to GGAUUUAUUUCCGAUUCGATT against Nalcn, the z-score was inactive: -0.0152. The result for GGUCUUAUCUUGAUUGAGGTT against Gpr180 reads inactive: -0.563. Next, GCUAGGAGACCUCUUCAUGTT against Mkrn2: inactive: 0.969; CGCUUAAAACAUUUGGUUATT against Rnf170: inactive: 0.489. For GGGAUCAAAGCUUUUUUAGTT against Mad2l1, the z-score is inactive: 0.28. As to GCGAGAAUUGGACAAAUUATT against Acot12, the z-score was inactive: 0.784. The result for GCAUCGUGCAGAAUUUUGCTT against Ephb1 reads inactive: -1.04. As for GGGAUUUUGAGUUUGAUGCTT against Zc3h10, the z-score is inactive: -1.03. Regarding GGAUGCAAGCAAAAUGCAGTT against Gpm6b, the z-score is inactive: 0.839. Next, GGAACAAUUGGUUUGUUAATT against Ms4a6b: inactive: 0.212; GGAGAGUGUCCUUUCAAAUTT against Zfp944: inactive: 0.819; GGAGAAAAAUGAAAGAUCUTT against Grb14: inactive: 0.548. As to CGAAGGGAUUGAUUUGACUTT against Kars, the z-score is inactive: -0.324. Next, GGUGAUAAGAUACAUAUCATT against Usp9x: inactive: -1.61; GGUCCUCAAGAUCUUUGUGTT against Extl1: inactive: 0.0445; GGAGACUGUGAUUGAGAUGTT against Rnf181: inactive: -0.401. CCUGUGCCUCGUUUUAUUUTT against Fam161a: the z-score was inactive: 0.807. The result for GGAGUAGAAUGUAUUCAGATT against Ccng1 reads inactive: -0.948; that for GCAUCUAUACACCGUCAGCTT against Zfp341, inactive: 0.0353; that for GGCCUCGUCAUUUUACAGGTT against Mcee, inactive: 0.098. Next, CCUUAGGUCUAAGUAAUCUTT against Dnase1l1: active: 2.3; CGCAAUAGUCUUAAACCCUTT against Lpxn: inactive: 0.532; GCUCUUCCGCACUUUCAUUTT against H2al1m: inactive: 1.37.

With GCAACUGAGUCGUAAGUUCTT against Tbc1d12, the z-score is inactive: 0.597. The result for CCUUCCUGUCCAUGUACCUTT against Olfr412 reads inactive: 0.879. The result for GGCAUUCCCAUCAAGAGCATT against Dynlrb1 reads inactive: 0.387; that for GGGAUACUUGCUCAAUGAGTT against Irf1, inactive: -1.3. The result for GGAGUUUUAACAACAGUAGTT against Clca2 reads inactive: -0.228; that for GCUAUGGGUAAACUUUUUGTT against Olfr354, inactive: 0.905. On to GGAACACAAGCAACAACCATT against Nutm1, for which the z-score was inactive: -1.21.
